Assay results as given in patent US4772596A, “Dihydropyridine derivatives, their preparation and their use” (Sankyo Company Limited, priority 1986, dated 1988).

Tested on: spontaneously hypertensive rats of the SHR strain
Experiment: Antihypertensive activity in conscious spontaneously hypertensive rats (blood pressure and heart rate)
Conditions: 3 mg/kg, po
Procedure: The test animals were spontaneously hypertensive rats of the SHR strain, each aged about 15 weeks. The antihypertensive activities of the test compounds were determined in these rats as follows.
Each animal was anaesthetized with sodium pentobarbital (50 mg/kg, intraperitoneally) and a polyethylene cannula was inserted into the abdominal aorta by the method of Weeks and Jones [J. R. Weeks and J. A. Jones, Proc. Soc. Exptl. […] The other end of the cannula left the animal's body at, and was fixed to, the neck. About 1 week after this surgery, when the animal had completely recovered from surgical stress, the free end of the aortic cannula was connected to a sphygmomanmeter to measure blood pressure and heart rate of the animal directly in the conscious, aparalytic and unrestrained state.
At this time, a test compound suspended in a 0.3% w/v aqueous carboxymethylcellulose solution was administered orally in the dose shown in the following Table 8.
Tmax : the time in hours after administration of the compound under test before the maximum change in blood pressure was recorded;
To 0.5 max : the time in hours after administration of the compound under test which is required for the blood pressure to return to one half of its maximum value;

COC(=O)C1=C(C)NC(C)=C(C(=O)OC)C1c1ccccc1[N+](=O)[O-] [nifedipine, reference compound]
T0.5 max (time after administration for the blood pressure to return to one half of its maximum value): 7.0 h | Tmax (time after administration before the maximum change in blood pressure): 18 min
